Reference: article PMC5680368

Chains of the proteins cited; added tags and fusions are not shown.
UniProt Q52LJ0: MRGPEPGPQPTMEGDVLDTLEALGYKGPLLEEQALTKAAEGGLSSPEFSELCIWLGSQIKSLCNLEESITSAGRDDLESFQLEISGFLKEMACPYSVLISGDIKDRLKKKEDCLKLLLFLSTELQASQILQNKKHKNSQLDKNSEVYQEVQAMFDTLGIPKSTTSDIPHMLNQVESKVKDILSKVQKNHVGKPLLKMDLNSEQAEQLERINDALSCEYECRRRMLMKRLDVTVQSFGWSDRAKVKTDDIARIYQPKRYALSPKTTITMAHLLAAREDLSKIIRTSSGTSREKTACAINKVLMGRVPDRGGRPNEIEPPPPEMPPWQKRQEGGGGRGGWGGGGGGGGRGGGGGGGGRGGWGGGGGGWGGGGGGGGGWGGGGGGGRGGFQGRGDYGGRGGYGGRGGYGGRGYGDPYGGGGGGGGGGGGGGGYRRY
UniProt Q02880: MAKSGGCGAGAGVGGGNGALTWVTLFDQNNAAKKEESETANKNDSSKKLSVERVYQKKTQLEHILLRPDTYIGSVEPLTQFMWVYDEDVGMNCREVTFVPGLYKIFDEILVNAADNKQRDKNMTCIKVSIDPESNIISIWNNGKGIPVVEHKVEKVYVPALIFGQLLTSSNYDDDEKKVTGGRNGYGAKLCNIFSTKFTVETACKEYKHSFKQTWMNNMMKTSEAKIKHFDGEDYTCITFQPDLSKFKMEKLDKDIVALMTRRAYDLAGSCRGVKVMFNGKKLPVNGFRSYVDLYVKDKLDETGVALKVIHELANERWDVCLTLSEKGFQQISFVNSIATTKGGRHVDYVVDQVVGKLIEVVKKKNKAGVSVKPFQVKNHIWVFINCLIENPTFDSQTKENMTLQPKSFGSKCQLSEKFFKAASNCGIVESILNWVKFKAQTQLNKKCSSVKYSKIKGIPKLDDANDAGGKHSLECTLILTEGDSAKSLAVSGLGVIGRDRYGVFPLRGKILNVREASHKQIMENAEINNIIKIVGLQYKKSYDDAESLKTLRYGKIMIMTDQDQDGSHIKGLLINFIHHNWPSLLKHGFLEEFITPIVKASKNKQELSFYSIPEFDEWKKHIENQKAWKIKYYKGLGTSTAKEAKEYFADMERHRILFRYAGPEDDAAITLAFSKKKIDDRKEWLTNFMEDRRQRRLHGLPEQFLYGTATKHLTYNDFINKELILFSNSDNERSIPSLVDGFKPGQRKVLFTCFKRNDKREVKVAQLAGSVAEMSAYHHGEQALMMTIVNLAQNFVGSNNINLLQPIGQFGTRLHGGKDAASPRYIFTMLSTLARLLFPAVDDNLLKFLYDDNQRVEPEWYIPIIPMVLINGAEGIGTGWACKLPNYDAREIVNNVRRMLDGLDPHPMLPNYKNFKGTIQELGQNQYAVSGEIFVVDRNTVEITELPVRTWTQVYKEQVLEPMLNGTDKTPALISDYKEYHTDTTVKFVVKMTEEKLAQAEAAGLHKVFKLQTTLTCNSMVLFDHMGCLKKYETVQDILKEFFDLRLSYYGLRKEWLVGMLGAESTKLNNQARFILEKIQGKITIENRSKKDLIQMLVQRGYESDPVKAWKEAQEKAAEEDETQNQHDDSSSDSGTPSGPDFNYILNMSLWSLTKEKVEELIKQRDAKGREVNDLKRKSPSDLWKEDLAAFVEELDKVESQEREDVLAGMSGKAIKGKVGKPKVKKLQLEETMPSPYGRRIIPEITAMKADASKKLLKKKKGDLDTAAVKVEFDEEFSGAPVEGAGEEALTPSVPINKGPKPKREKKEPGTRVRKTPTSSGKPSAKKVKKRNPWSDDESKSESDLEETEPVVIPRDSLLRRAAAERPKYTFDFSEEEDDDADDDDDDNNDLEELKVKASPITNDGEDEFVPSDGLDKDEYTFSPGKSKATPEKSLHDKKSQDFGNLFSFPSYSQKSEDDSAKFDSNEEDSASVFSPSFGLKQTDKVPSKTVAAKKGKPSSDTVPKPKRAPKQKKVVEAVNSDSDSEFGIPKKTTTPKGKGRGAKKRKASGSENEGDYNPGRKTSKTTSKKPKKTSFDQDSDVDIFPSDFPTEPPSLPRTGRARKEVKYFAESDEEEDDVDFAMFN
UniProt Q16637: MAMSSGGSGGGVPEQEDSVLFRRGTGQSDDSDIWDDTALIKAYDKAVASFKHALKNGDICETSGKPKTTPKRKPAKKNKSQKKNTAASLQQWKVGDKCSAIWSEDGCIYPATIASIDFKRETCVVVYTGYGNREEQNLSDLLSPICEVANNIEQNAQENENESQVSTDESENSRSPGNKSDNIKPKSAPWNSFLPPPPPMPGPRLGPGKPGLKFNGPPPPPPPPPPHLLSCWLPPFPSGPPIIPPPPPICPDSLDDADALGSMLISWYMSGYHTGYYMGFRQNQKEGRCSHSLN
UniProt Q15532: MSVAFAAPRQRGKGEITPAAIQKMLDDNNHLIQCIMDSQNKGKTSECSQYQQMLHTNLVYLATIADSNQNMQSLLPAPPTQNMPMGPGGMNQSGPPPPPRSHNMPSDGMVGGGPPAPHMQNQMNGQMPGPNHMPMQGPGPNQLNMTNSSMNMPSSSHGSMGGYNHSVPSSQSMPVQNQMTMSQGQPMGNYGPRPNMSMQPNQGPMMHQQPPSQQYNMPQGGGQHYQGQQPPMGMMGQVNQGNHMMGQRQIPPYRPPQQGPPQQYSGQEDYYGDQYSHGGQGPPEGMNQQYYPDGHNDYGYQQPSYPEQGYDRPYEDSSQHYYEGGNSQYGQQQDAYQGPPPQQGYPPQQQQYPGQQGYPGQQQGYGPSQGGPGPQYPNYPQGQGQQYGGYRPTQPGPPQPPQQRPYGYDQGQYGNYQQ

T1: human OSTF1 tagged at the N-terminus with a V5-epitope tag (human) (UniProt Q92882)
T1 sequence: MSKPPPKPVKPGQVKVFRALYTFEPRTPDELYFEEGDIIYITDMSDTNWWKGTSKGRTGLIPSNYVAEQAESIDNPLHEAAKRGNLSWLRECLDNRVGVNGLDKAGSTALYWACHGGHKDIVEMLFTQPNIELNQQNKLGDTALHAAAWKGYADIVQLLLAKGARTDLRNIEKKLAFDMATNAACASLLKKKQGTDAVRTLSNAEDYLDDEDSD

B1: Apoptotic chromatin condensation inducer 1 (protein, UniProt Q9UKV3 1-1341)
chain: MWRRKHPRTSGGTRGVLSGNRGVEYGSGRGHLGTFEGRWRKLPKMPEAVGTDPSTSRKMAELEEVTLDGKPLQALRVTDLKAALEQRGLAKSGQKSALVKRLKGALMLENLQKHSTPHAAFQPNSQIGEEMSQNSFIKQYLEKQQELLRQRLEREAREAAELEEASAESEDEMIHPEGVASLLPPDFQSSLERPELELSRHSPRKSSSISEEKGDSDDEKPRKGERRSSRVRQARAAKLSEGSQPAEEEEDQETPSRNLRVRADRNLKTEEEEEEEEEEEEDDEEEEGDDEGQKSREAPILKEFKEEGEEIPRVKPEEMMDERPKTRSQEQEVLERGGRFTRSQEEARKSHLARQQQEKEMKTTSPLEEEEREIKSSQGLKEKSKSPSPPRLTEDRKKASLVALPEQTASEEETPPPLLTKEASSPPPHPQLHSEEEIEPMEGPAPAVLIQLSPPNTDADTRELLVSQHTVQLVGGLSPLSSPSDTKAESPAEKVPEESVLPLVQKSTLADYSAQKDLEPESDRSAQPLPLKIEELALAKGITEECLKQPSLEQKEGRRASHTLLPSHRLKQSADSSSSRSSSSSSSSSRSRSRSPDSSGSRSHSPLRSKQRDVAQARTHANPRGRPKMGSRSTSESRSRSRSRSRSASSNSRKSLSPGVSRDSSTSYTETKDPSSGQEVATPPVPQLQVCEPKERTSTSSSSVQARRLSQPESAEKHVTQRLQPERGSPKKCEAEEAEPPAATQPQTSETQTSHLPESERIHHTVEEKEEVTMDTSENRPENDVPEPPMPIADQVSNDDRPEGSVEDEEKKESSLPKSFKRKISVVSATKGVPAGNSDTEGGQPGRKRRWGASTATTQKKPSISITTESLKSLIPDIKPLAGQEAVVDLHADDSRISEDETERNGDDGTHDKGLKICRTVTQVVPAEGQENGQREEEEEEKEPEAEPPVPPQVSVEVALPPPAEHEVKKVTLGDTLTRRSISQQKSGVSITIDDPVRTAQVPSPPRGKISNIVHISNLVRPFTLGQLKELLGRTGTLVEEAFWIDKIKSHCFVTYSTVEEAVATRTALHGVKWPQSNPKFLCADYAEQDELDYHRGLLVDRPSETKTEEQGIPRPLHPPPPPPVQPPQHPRAEQREQERAVREQWAEREREMERRERTRSEREWDRDKVREGPRSRSRSRDRRRKERAKSKEKKSEKKEKAQEEPPAKLLDDLFRKTKAAPCIYWLPLTDSQIVQKEAERAERAKEREKRRKEQEEEEQKEREKEAERERNRQLEREKRREHSRERDRERERERERDRGDRDRDRERDRERGRERDRRDTKRHSRSRSRSTPVRDRGGRR
B2: Deoxynucleotidyltransferase terminal interacting protein 2 (protein, UniProt Q5QJE6 1-756)
chain: MVVTRSARAKASIQAASAESSGQKSFAANGIQAHPESSTGSDARTTAESQTTGKQSLIPRTPKARKRKSRTTGSLPKGTEPSTDGETSEAESNYSVSEHHDTILRVTRRRQILIACSPVSSVRKKPKVTPTKESYTEEIVSEAESHVSGISRIVLPTEKTTGARRSKAKSLTDPSQESHTEAISDAETSSSDISFSGIATRRTRSMQRKLKAQTEKKDSKIVPGNEKQIVGTPVNSEDSDTRQTSHLQARSLSEINKPNFYNNDFDDDFSHRSSENILTVHEQANVESLKETKQNCKDLDEDANGITDEGKEINEKSSQLKNLSELQDTSLQQLVSQRHSTPQNKNAVSVHSNLNSEAVMKSLTQTFATVEVGRWNNNKKSPIKASDLTKFGDCGGSDDEEESTVISVSEDMNSEGNVDFECDTKLYTSAPNTSQGKDNSVLLVLSSDESQQSENSENEEDTLCFVENSGQRESLSGDTGSLSCDNALFVIDTTPGMSADKNFYLEEEDKASEVAIEEEKEEEEDEKSEEDSSDHDENEDEFSDEEDFLNSTKAKLLKLTSSSIDPGLSIKQLGGLYINFNADKLQSNKRTLTQIKEKKKNELLQKAVITPDFEKNHCVPPYSESKYQLQKKRRKERQKTAGDGWFGMKAPEMTNELKNDLKALKMRASMDPKRFYKKNDRDGFPKYFQIGTIVDNPADFYHSRIPKKQRKRTIVEELLADSEFRRYNRRKYSEIMAEKAANAAGKKFRKKKKFRN
B3: SR-related CTD associated factor 11 (protein, UniProt Q99590 1-1463)
chain: MKKKTVCTLNMGDKKYEDMEGEENGDNTISTGLLYSEADRCPICLNCLLEKEVGFPESCNHVFCMTCILKWAETLASCPIDRKPFQAVFKFSALEGYVKVQVKKQLRETKDKKNENSFEKQVSCHENSKSCIRRKAIVREDLLSAKVCDLKWIHRNSLYSETGGKKNAAIKINKPQRSNWSTNQCFRNFFSNMFSSVSHSGESSFTYRAYCTEFIEASEISALIRQKRHELELSWFPDTLPGIGRIGFIPWNVETEVLPLISSVLPRTIFPTSTISFEHFGTSCKGYALAHTQEGEEKKQTSGTSNTRGSRRKPAMTTPTRRSTRNTRAETASQSQRSPISDNSGCDAPGNSNPSLSVPSSAESEKQTRQAPKRKSVRRGRKPPLLKKKLRSSVAAPEKSSSNDSVDEETAESDTSPVLEKEHQPDVDSSNICTVQTHVENQSANCLKSCNEQIEESEKHTANYDTEERVGSSSSESCAQDLPVLVGEEGEVKKLENTGIEANVLCLESEISENILEKGGDPLEKQDQISGLSQSEVKTDVCTVHLPNDFPTCLTSESKVYQPVSCPLSDLSENVESVVNEEKITESSLVEITEHKDFTLKTEELIESPKLESSEGEIIQTVDRQSVKSPEVQLLGHVETEDVEIIATCDTFGNEDFNNIQDSENNLLKNNLLNTKLEKSLEEKNESLTEHPRSTELPKTHIEQIQKHFSEDNNEMIPMECDSFCSDQNESEVEPSVNADLKQMNENSVTHCSENNMPSSDLADEKVETVSQPSESPKDTIDKTKKPRTRRSRFHSPSTTWSPNKDTPQEKKRPQSPSPRRETGKESRKSQSPSPKNESARGRKKSRSQSPKKDIARERRQSQSRSPKRDTTRESRRSESLSPRRETSRENKRSQPRVKDSSPGEKSRSQSRERESDRDGQRRERERRTRKWSRSRSHSRSPSRCRTKSKSSSFGRIDRDSYSPRWKGRWANDGWRCPRGNDRYRKNDPEKQNENTRKEKNDIHLDADDPNSADKHRNDCPNWITEKINSGPDPRTRNPEKLKESHWEENRNENSGNSWNKNFGSGWVSNRGRGRGNRGRGTYRSSFAYKDQNENRWQNRKPLSGNSNSSGSESFKFVEQQSYKRKSEQEFSFDTPADRSGWTSASSWAVRKTLPADVQNYYSRRGRNSSGPQSGWMKQEEETSGQDSSLKDQTNQQVDGSQLPINMMQPQMNVMQQQMNAQHQPMNIFPYPVGVHAPLMNIQRNPFNIHPQLPLHLHTGVPLMQVATPTSVSQGLPPPPPPPPPSQQVNYIASQPDGKQLQGIPSSSHVSNNMSTPVLPAPTAAPGNTGMVQGPSSGNTSSSSHSKASNAAVKLAESKVSVAVEASADSSKTDKKLQIQEKAAQEVKLAIKPFYQNKDITKEEYKEIVRKAVDKVCHSKSGEVNSTKVANLVKAYVDKYKYSRKGSQKKTLEEPVSTEKNIG
B4: Smad nuclear interacting protein 1 (protein, UniProt Q8TAD8 1-396)
chain: MKAVKSERERGSRRRHRDGDVVLPAGVVVKQERLSPEVAPPAHRRPDHSGGSPSPPTSEPARSGHRGNRARGVSRSPPKKKNKASGRRSKSPRSKRNRSPHHSTVKVKQEREDHPRRGREDRQHREPSEQEHRRARNSDRDRHRGHSHQRRTSNERPGSGQGQGRDRDTQNLQAQEEEREFYNARRREHRQRNDVGGGGSESQELVPRPGGNNKEKEVPAKEKPSFELSGALLEDTNTFRGVVIKYSEPPEARIPKKRWRLYPFKNDEVLPVMYIHRQSAYLLGRHRRIADIPIDHPSCSKQHAVFQYRLVEYTRADGTVGRRVKPYIIDLGSGNGTFLNNKRIEPQRYYELKEKDVLKFGFSSREYVLLHESSDTSEIDRKDDEDEEEEEEVSDS

Key:
[1] = target: T1, human OSTF1 tagged at the N-terminus with a V5-epitope tag (human); test: affinity purification with mass spectrometry; HEK293 cells transiently transfected in triplicate with empty vector or V5-OSTF1; lysed after 48 h in 50 mM Tris pH 7.5, 1% Triton-X100, 150 mM NaCl; automated IP with anti-V5 magnetic agarose; co-immunoprecipitating proteins identified by LC-MS/MS
[2] = target: T1, human OSTF1 tagged at the N-terminus with a V5-epitope tag (human); test: as above; remark: listed apart in the source

Row | Molecule | binding [1] | binding [2]
1 | Family with sequence similarity 98 member B (from UniProt Q52LJ0 1-433) | binds | 
2 | Topoisomerase (DNA) II beta (from UniProt Q02880 1-1626) | binds | 
3 | Survival of Motor Neuron 1 (from UniProt Q16637 1-294) | no binding | 
4 | SS18, nBAF chromatin remodelling complex subunit (from UniProt Q15532 1-418) | binds | 
5 | B1 |  | binds
6 | B2 |  | binds
7 | B3 |  | binds
8 | B4 |  | binds

Like-named read-outs stand apart in the source and are kept apart here. Results are given in words; binding and its absence hold for the method and conditions named. In cells and extracts the contact can be indirect. These calls come from enrichment with a bait or labelling near it, and not all partners need be listed. For some assays here: No binding means not detected with the bait. Where a sequence is shown, tags or fusion partners need not be part of it.
